The assay addresses T1, FAM209-FLAG (family with sequence similarity 209, FLAG knock-in) (mouse (endogenous in testis)) (UniProt A2APA5).
T1 sequence: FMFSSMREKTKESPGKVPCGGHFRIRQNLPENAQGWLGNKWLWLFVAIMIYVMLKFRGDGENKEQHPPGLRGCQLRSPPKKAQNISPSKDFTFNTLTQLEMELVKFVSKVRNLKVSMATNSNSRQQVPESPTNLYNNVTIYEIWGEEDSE
Put plainly: co-IP; anti-FLAG immunoprecipitation of FAM209-FLAG from testis lysate (CHAPS buffer), western blot with anti-DPY19L2 or anti-CLGN. A general note: Immunoblotting shows a protein as a band on a membrane.

Chains of the proteins cited; added tags and fusions are not shown.
UniProt P0CW70: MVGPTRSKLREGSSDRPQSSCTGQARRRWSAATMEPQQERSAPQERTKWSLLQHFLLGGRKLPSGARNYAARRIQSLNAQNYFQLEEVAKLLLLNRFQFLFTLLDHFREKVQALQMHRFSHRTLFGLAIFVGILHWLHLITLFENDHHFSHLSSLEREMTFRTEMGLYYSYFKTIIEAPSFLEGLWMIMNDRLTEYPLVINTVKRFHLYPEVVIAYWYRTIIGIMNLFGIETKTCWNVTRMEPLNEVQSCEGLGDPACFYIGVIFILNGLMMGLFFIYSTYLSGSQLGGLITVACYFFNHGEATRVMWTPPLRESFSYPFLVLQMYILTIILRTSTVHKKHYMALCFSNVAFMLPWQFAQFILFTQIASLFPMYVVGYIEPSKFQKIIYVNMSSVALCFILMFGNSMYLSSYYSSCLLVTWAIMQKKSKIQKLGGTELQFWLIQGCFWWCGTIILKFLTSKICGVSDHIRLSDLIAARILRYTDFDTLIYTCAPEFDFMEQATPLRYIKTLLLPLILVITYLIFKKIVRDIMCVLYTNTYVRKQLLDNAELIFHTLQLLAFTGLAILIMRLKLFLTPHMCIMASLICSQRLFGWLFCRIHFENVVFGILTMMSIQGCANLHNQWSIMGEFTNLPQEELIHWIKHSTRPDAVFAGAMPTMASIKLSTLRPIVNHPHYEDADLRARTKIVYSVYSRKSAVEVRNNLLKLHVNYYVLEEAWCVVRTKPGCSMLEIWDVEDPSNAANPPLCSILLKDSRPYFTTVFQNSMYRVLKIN

These are yes or no findings as the source states them, for the method shown. Binding seen in cells or lysates may run through a third protein. Some binding calls cover weakened binding; strength is not graded here. Where a sequence is shown, tags or fusion partners need not be part of it.

Regarding “Probable C-mannosyltransferase DPY19L2 (from UniProt P0CW70 1-773)”, the binding entry is recorded as “binds”.

B1: calmegin (CLGN) (protein, UniProt P52194 20-611)
chain: DFMDDGVEVEDFSENSDESNIKDEPSSGTFKYKTPQPIGEVYFTETFDSGNLAGWVLSKAKKDDMDSEIAIYDGRWEIEELKENQVPGDRGLVLKSKAKHHAIAAVLEKPFIFADKPLIVQYEVNFQDGIDCGGAYIKLLADTGDLILENFYDKTSYTIMFGPDKCGEDYKLHLIFRHKHPKTGVFEEKHAKPPDVDLKEFFTDRKTHLYTLVMNPDDTFEVLIDQKVVNQGTLLDDVVPPINPPREIDDPSDKKPEEWDDRAKIPDPTAVRPEDWDENEPAQIEDSSAVKPDGWLDDEPKFIPNPKAEKPEDWSDDMDGEWEAPHIPNPACQIGCGEWKPPMIDNPKYKGIWRPPMINNPNYQGLWSPQKIPNPDYFEDDHPFLLTSFSALGLELWSMTPDIYFDNFIICSEKEVADQWATDGWELKIMVANANEPGVLRQLVIAAEERPWLWLMYLVMAGLPVALVASFCWPRKVKKKYEDTGPKKTELCKLQSKAALEQEAEEEKAPEKPEDVQEEKKPGEAEVVTVEKEVIGEPEEKSKEDRETLEGQEEVSKLSKSGSEDEMKDADESPGSGDAPLKSLRKRRVRKD
For B1, the binding entry is “binds”.

Source of the values: publication PMC8627553.
